At least one read-out could not be matched to a standard name with certainty.
What was measured:
Fomitopsis palustris [1] = assay: Test for antiseptic effects of preservative plywood (JIS K1571:2004); assay type: cell-based; conditions: urea melamine resin
Description: (§1) 1000 g of urea melamine resin (PWP-60, manufactured by Oshika Corporation) was added to 180 g of wheat flour and fully kneaded to thereby obtain a kneaded product. 8 g of ammonium chloride was added as a hardening agent to the kneaded product, and a solution of each of the compounds of Example 1 and Comparative Example 1, 2 and 5 to 25 was further added thereto so that the final concentrations of the compound in the wood become 150, 100, 50 and 25 g/m^3 and kneaded. 18 g of the above kneaded product was applied onto each of the bonding plane of the three red lauan veneer sheets having an area of 30 x 30 cm and thickness of 0.85 mm/2.4 mm/0.85 mm. After bonding the three sheets to each other, the sheets were subjected to cold pressing at room temperature for 20 minutes and the thermal pressure of 120° C. (10 kgf/cm^2) was applied to the sheets for two minutes to obtain the target plywood. Each of the prepared plywood was processed into the size of 20×20×4.1 mm to serve as a test sample.
(§2) The samples of the plywood and LVL prepared in Preparation Examples 2 and 3 were evaluated by the test for antiseptic effects for the drug pressure treatment according to JIS K1571:2004. The weather resistance operation and the test method for the antiseptic effect were performed according to the above test method.

Trametes versicolor [2] = assay: as above; assay type: cell-based; conditions: urea melamine resin
Description: as §1, §2

fungus cellar soil-bed [3] = assay: Fungus cellar soil-bed test of preservative plywood (JIS K1571:2004); conditions: 25° C., grade 0 sound condition to 5 out of shape due to the decay
Description: as §1
The preservative plywood was prepared in the same manner in Preparation Example 2. Each of the prepared plywood was processed into the size of 8.9 x 8.9×100 mm to serve as a test sample.
(§3) The samples of the plywood and LVL prepared in Preparation Examples 4 and 5 were evaluated by the fungus cellar soil-bed test according to JIS K1571:2004. The weather resistance operation and the test method for the antiseptic effect were performed according to the above test method. The test was carried out for six months setting the test temperature to 25° C. (because the grade average of the decay damage of the non-treated test samples exceeded 2.5 in six months). […] The effect in the glue line treatment was actually investigated with respect to a number of existing antiseptics, and it was confirmed that only epoxyconazole is suitable for the glue line treatment at a low concentration.

fungus cellar soil-bed [4] = assay: Fungus cellar soil-bed test of preservative LVL (JIS K1571:2004); conditions: 25° C., grade 0 sound condition to 5 out of shape due to the decay
Description: (§4) 1000 g of the phenol resin-based glue Deernol D-117 (manufactured by Oshika Corporation), 70 g of wheat flour and 100 g of calcium carbonate were mixed and well kneaded. A solution of each of the compounds of Example 1 and Comparative Example 1, 2 and 5 to 25 was added to the kneaded product so that the final concentrations of the compound in the wood become 150, 100, 50 and 25 g/m^3 and further kneaded. 18 g of the above kneaded product was applied onto each of the surface of glue line of the three Radiata pine veneer sheets having an area of 30 x 30 cm and thickness of 3 mm. After bonding the three sheets to each other, the sheets were subjected to cold pressing at room temperature for 20 minutes and the thermal pressure of 140° C. (10 kgf/cm^2) was applied to the sheets for two minutes to obtain the target LVL. Each of the prepared LVL was processed into the size of 20×20×9 mm to serve as a test sample.
The preservative LVL was prepared in the same manner in Preparation Example 3. Each of the prepared LVL was processed into the size of 9×9×100 mm to serve as a test sample.
as §3

Fomitopsis palustris [5] = assay: Test for antiseptic effects of preservative LVL (JIS K1571:2004); assay type: cell-based; conditions: phenol resin
Description: as §4, §2

Trametes versicolor [6] = assay: as above; assay type: cell-based; conditions: phenol resin
Description: as §4, §2

[7] = treated amount 25 g/m^3, six months
[8] = treated amount 50 g/m^3, six months
[9] = treated amount 100 g/m^3, six months
[10] = treated amount 150 g/m^3, six months

SMILES | average rate of decrease in weight (Fomitopsis palustris [1]; treated amount 25 g/m^3) | average rate of decrease in weight (Fomitopsis palustris [1]; treated amount 50 g/m^3) | average rate of decrease in weight (Fomitopsis palustris [1]; treated amount 100 g/m^3) | average rate of decrease in weight (Fomitopsis palustris [1]; treated amount 150 g/m^3) | average rate of decrease in weight (Trametes versicolor [2]; treated amount 25 g/m^3) | average rate of decrease in weight (Trametes versicolor [2]; treated amount 50 g/m^3) | average rate of decrease in weight (Trametes versicolor [2]; treated amount 100 g/m^3) | average rate of decrease in weight (Trametes versicolor [2]; treated amount 150 g/m^3) | Grade average of the decay damage of five test samples (fungus cellar soil-bed [3]; [7]) | Grade average of the decay damage of five test samples (fungus cellar soil-bed [3]; [8]) | Grade average of the decay damage of five test samples (fungus cellar soil-bed [3]; [9]) | Grade average of the decay damage of five test samples (fungus cellar soil-bed [3]; [10]) | Grade average of the decay damage of five test samples (fungus cellar soil-bed [4]; [7]) | Grade average of the decay damage of five test samples (fungus cellar soil-bed [4]; [8]) | Grade average of the decay damage of five test samples (fungus cellar soil-bed [4]; [9]) | Grade average of the decay damage of five test samples (fungus cellar soil-bed [4]; [10]) | average rate of decrease in weight (Fomitopsis palustris [5]; treated amount 25 g/m^3) | average rate of decrease in weight (Fomitopsis palustris [5]; treated amount 50 g/m^3) | average rate of decrease in weight (Fomitopsis palustris [5]; treated amount 100 g/m^3) | average rate of decrease in weight (Fomitopsis palustris [5]; treated amount 150 g/m^3) | also measured
Clc1ccc(C2(Cn3cncn3)OCCO2)c(Cl)c1 [Comparative Example 7, azaconazole] | X (The average rate of decrease in weight was 3% or more.) | X (The average rate of decrease in weight was 3% or more.) | X (The average rate of decrease in weight was 3% or more.) | X (The average rate of decrease in weight was 3% or more.) | X (The average rate of decrease in weight was 3% or more.) | X (The average rate of decrease in weight was 3% or more.) | X (The average rate of decrease in weight was 3% or more.) | X (The average rate of decrease in weight was 3% or more.) | 2.8 | 2.8 | 2.8 | 2.8 | 2.8 | 3.6 | 2.8 | 2.8 | X (The average rate of decrease in weight was 3% or more.) | X (The average rate of decrease in weight was 3% or more.) | X (The average rate of decrease in weight was 3% or more.) | X (The average rate of decrease in weight was 3% or more.) | average rate of decrease in weight (Trametes versicolor [6]; treated amount 25 g/m^3): X (The average rate of decrease in weight was 3% or more.); average rate of decrease in weight (Trametes versicolor [6]; treated amount 50 g/m^3): X (The average rate of decrease in weight was 3% or more.); average rate of decrease in weight (Trametes versicolor [6]; treated amount 100 g/m^3): X (The average rate of decrease in weight was 3% or more.); average rate of decrease in weight (Trametes versicolor [6]; treated amount 150 g/m^3): X (The average rate of decrease in weight was 3% or more.)
Clc1ccc(CSC(Cn2cncn2)=Nc2ccc(Cl)cc2Cl)cc1 [Comparative Example 12, imibenconazole] | X (The average rate of decrease in weight was 3% or more.) | X (The average rate of decrease in weight was 3% or more.) | X (The average rate of decrease in weight was 3% or more.) | X (The average rate of decrease in weight was 3% or more.) | X (The average rate of decrease in weight was 3% or more.) | X (The average rate of decrease in weight was 3% or more.) | X (The average rate of decrease in weight was 3% or more.) | X (The average rate of decrease in weight was 3% or more.) | 3.0 | 2.8 | 3.4 | 2.8 | 2.6 | 3.2 | 3.2 | 2.6 | X (The average rate of decrease in weight was 3% or more.) | X (The average rate of decrease in weight was 3% or more.) | X (The average rate of decrease in weight was 3% or more.) | X (The average rate of decrease in weight was 3% or more.) | average rate of decrease in weight (Trametes versicolor [6]; treated amount 25 g/m^3): X (The average rate of decrease in weight was 3% or more.); average rate of decrease in weight (Trametes versicolor [6]; treated amount 50 g/m^3): X (The average rate of decrease in weight was 3% or more.); average rate of decrease in weight (Trametes versicolor [6]; treated amount 100 g/m^3): X (The average rate of decrease in weight was 3% or more.); average rate of decrease in weight (Trametes versicolor [6]; treated amount 150 g/m^3): X (The average rate of decrease in weight was 3% or more.)
